Source: patent US20050192247A1, “Method of treating cancers” (priority 2004, published 2005)
Where a name gives a salt, the structure may show the parent alone. Some results were stated once for a whole list of compounds, not compound by compound.

Test system: Human pancreatic cancer Panc-1 cells
Assay: Panc-1 human pancreatic cancer xenograft mouse model
Format: in vivo
Details: ten treatments
Method: Human pancreatic cancer Panc-1 cells (2×10^6) are implanted subcutaneously into male athymic nude (Ncr) mice. Following establishment of tumor nodules (about 50 mm^3), the animals are randomized into four groups of five animals per group. The animals are treated intraperitoneally with one of four treatments: β-lapachone at 40 mg/kg in 40% hydroxypropy-β-cyclodextran; gemcitabine (Gemzar®) at 120 mg/kg (in PBS); β-lapachone (40 mg/kg)+gemcitabine (120 mg/kg); or vehicle control. The mice receive a total of ten treatments, administered every three days (on study day 5, 8, 11, 14, 17, 20, 31, 34, 37, and 40). The combination therapy group receives β-lapachone and gemcitabine on the same day in each treatment. Following treatment, the animals are observed for an additional 19 days. Tumors are measured throughout the treatment and post-treatment periods.

Compound	tumor regression at termination of treatment (β-lapachone 40 mg/kg intraperitoneally every three days)	reduction of tumor size at termination of treatment (gemcitabine 120 mg/kg intraperitoneally every three days)
CC1(C)CCC2=C(O1)c1ccccc1C(=O)C2=O [β-lapachone, 3,4-dihydro-2,2-dimethyl-2H-naphtho[1,2-b]pyran-5,6-dione]	30-40%	
Nc1ccn([C@@H]2O[C@H](CO)[C@@H](O)C2(F)F)c(=O)n1 [gemcitabine, 2′-deoxy-2′,2′-difluorocytidine monohydrochloride (β-isomer), reference compound]		30-40%
